Test results from PubChem BioAssay AID2685 (National Center for Advancing Translational Sciences (NCATS), 2010).
The list shows a part of the results. Further columns of the screen follow, without active or inactive calls. Most of these compounds were active or inconclusive in the main read-out, so they are no random draw. Words in brackets tell the shape of the fitted curve; partial curves, single points and poor fits give uncertain potencies.

Assay: qHTS Assay for Lipid Storage Modulators in Drosophila S3 Cells;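 for cell number change: cells counted by Cell Tracker Red CMTPX staining in the red channel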
Settings: BODIPY lipid droplet fluorescence, 18-24 h; for cell number change: measured here: cell count max response, cells fed with added oleic acid
Procedure, shortened: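 Drosophila S3 cells got compounds at several concentrations plus oleic acid (400 uM solution). Laser-scanning cytometry with 488 nm excitation read lipid droplets at 500-530 nm and cells at 575-640 nm. Percent activity was relative to 20 uM Triacsin C.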

[1] = measured here: lipid fluorescence (Fed channel) AC50, cells fed with added oleic acid
[2] = measured here: cell number channel AC50, cells fed with added oleic acid

Row | Compound | cell number change [%] | AC50 [1] | AC50 [2]
1 | CCCS(=O)(=O)N1CCCC(C(=O)NCCCN(C)Cc2ccccc2)C1 (stereo unspecified) | -11.6 | 7.31 µM [falling, partial curve, poor fit] | –
2 | Cc1cc(Cl)nc(Cl)c1C(=O)NCCc1ccccc1 | -12.7 | – | –
3 | CCN(CC)S(=O)(=O)c1ccc(OC)c(NC(=O)CCc2c(C)noc2C)c1 | -3.15 | – | –
4 | S=C(NC1CCCC1)N1CCN(c2ncccn2)CC1 | 66.7 | 29.1 µM [rising, single point] | 29.1 µM [rising, single point]
5 | CCCN1CCC(=O)N([C@H](CSc2ccc(C)cc2)Cc2ccccc2)CC1 | -37.1 | 29.1 µM [falling, single point] | 20.6 µM [falling, partial curve, poor fit]
6 | CCN(CC)S(=O)(=O)c1ccc(C(=O)Nn2cnnc2)cc1 | -8.7 | 0.00461 µM [falling, full curve, poor fit] | –
7 | COCCN1C(=O)C(=O)/C(=C(/O)c2ccc(S(=O)(=O)N3CCOCC3)cc2)C1c1ccc(C(C)C)cc1 (stereo unspecified) | 2.2 | 3.26 µM [rising, full curve] | –
8 | Cc1nn(C(=O)c2cccnc2)c(C)c1Sc1ccc(Br)cc1 | -27.9 | 29.1 µM [falling, single point] | –
9 | CCOCCCn1c(=S)[nH]c2cc(C(=O)NCCOC)ccc2c1=O | -18.8 | – | –
10 | CCc1nnc(NC(=O)C2Cc3ccccc3CN2S(=O)(=O)CC)s1 (stereo unspecified) | 38.4 | – | 16.4 µM [rising, single point]
11 | COc1ccc(N(C)C(=O)C2CCN(S(=O)(=O)c3cccc4nsnc34)CC2)cc1 | 17.2 | 29.1 µM [rising, single point] | –
12 | COc1ccc(C)cc1NC(=O)CN1CCN(S(=O)(=O)c2ccc(Cl)cc2)CC1 | 265 | 20.6 µM [rising, partial curve] | 16.4 µM [rising, partial curve]
13 | COc1cccc(NS(=O)(=O)c2ccc3c(c2)CCN3C(C)=O)c1 | – | 0.58 µM [falling, single point] | –
14 | CCOc1ccccc1NC(=O)NC1(C(=O)NCc2cccnc2)CCCCC1 | -11.3 | – | –
15 | COc1ccc(-c2[nH]c(-c3ccc(F)cc3)nc2SCC(=O)NCc2ccco2)cc1OC | -8.56 | 0.146 µM [falling, full curve, poor fit] | –
16 | CN(CC(=O)Nc1ccc(F)cc1)C(=O)CSc1ccc2c(c1)OCCO2 | -22.2 | 0.651 µM [falling, single point] | –
17 | COc1ccc(C2N(Cc3ccccc3)CCN2Cc2ccccc2)cc1[N+](=O)[O-] | -16.4 | 5.8 µM [falling, single point] | 2.91 µM [falling, single point]
18 | O=C1[C@H]2[C@@H](c3ccc(F)cc3)N3C(=O)N(c4cccc(Br)c4)C(=O)[C@@]3(Cc3ccc(Cl)cc3)[C@H]2C(=O)N1C1CCCCC1 | 110 | 0.58 µM [falling, single point] | 20.6 µM [rising, partial curve]
19 | Cc1ccc(NCC(O)C(O)C(O)CO)cc1C (stereo unspecified) | -31.4 | 23.1 µM [falling, partial curve] | 0.13 µM [falling, full curve, poor fit]

By substructure, those above with nitrogen in an aromatic ring
Row | Compound | cell number change [%] | AC50 [1] | AC50 [2]
2 | Cc1cc(Cl)nc(Cl)c1C(=O)NCCc1ccccc1 | -12.7 | – | –
3 | CCN(CC)S(=O)(=O)c1ccc(OC)c(NC(=O)CCc2c(C)noc2C)c1 | -3.15 | – | –
4 | S=C(NC1CCCC1)N1CCN(c2ncccn2)CC1 | 66.7 | 29.1 µM [rising, single point] | 29.1 µM [rising, single point]
6 | CCN(CC)S(=O)(=O)c1ccc(C(=O)Nn2cnnc2)cc1 | -8.7 | 0.00461 µM [falling, full curve, poor fit] | –
8 | Cc1nn(C(=O)c2cccnc2)c(C)c1Sc1ccc(Br)cc1 | -27.9 | 29.1 µM [falling, single point] | –
9 | CCOCCCn1c(=S)[nH]c2cc(C(=O)NCCOC)ccc2c1=O | -18.8 | – | –
10 | CCc1nnc(NC(=O)C2Cc3ccccc3CN2S(=O)(=O)CC)s1 (stereo unspecified) | 38.4 | – | 16.4 µM [rising, single point]
11 | COc1ccc(N(C)C(=O)C2CCN(S(=O)(=O)c3cccc4nsnc34)CC2)cc1 | 17.2 | 29.1 µM [rising, single point] | –
14 | CCOc1ccccc1NC(=O)NC1(C(=O)NCc2cccnc2)CCCCC1 | -11.3 | – | –
15 | COc1ccc(-c2[nH]c(-c3ccc(F)cc3)nc2SCC(=O)NCc2ccco2)cc1OC | -8.56 | 0.146 µM [falling, full curve, poor fit] | –

The list goes on:

Row | Compound | cell number change [%] | AC50 [1] | AC50 [2]
20 | N#Cc1c(N)nc(SCc2ccccc2)c(C#N)c1-c1ccco1 | -28.1 | 18.4 µM [falling, single point] | –
21 | COc1cc(C2C(C#N)=C(N)Oc3cc(O)ccc32)cc2c1OCO2 (stereo unspecified) | -29 | 0.00461 µM [falling, full curve, poor fit] | –
22 | Cc1ccnc(NC2CCCCC2)c1 | -58.3 | – | 0.517 µM [falling, full curve]
23 | COc1cccc(CC(=O)Nc2cc(S(=O)(=O)N3CCOCC3)ccc2N2CCOCC2)c1 | -10.8 | – | –
24 | Cc1noc(C)c1COc1ccc(C(=O)N2CCN(c3ccccc3O)CC2)cc1 | 0.928 | – | –
25 | CN1C[N+]([O-])=C(c2ccccc2)C1(C)C | 24.9 | 4.11 µM [rising, full curve] | 2.31 µM [rising, full curve, poor fit]
26 | O=C(CCNC(=O)Cn1ccc2ccccc2c1=O)NCCN1CCc2ccccc2C1 | -13.6 | 0.291 µM [falling, full curve, poor fit] | 0.517 µM [falling, full curve]
27 | COC(=O)c1ccc(S(=O)(=O)N2CCCCC2)o1 | -49.1 | 0.259 µM [falling, full curve, poor fit] | 25.9 µM [falling, single point]
28 | Cc1cc(NC(=O)CN2CCN(c3ccccn3)CC2)ccc1Br | 0.354 | – | –
29 | CC(=O)c1cccc(NC(=O)Nc2cnn(Cc3ccc(Cl)cc3Cl)c2)c1 | – | 0.58 µM [rising, single point] | 1.84 µM [rising, partial curve]
30 | COc1ccc(NC(=O)NC(=O)c2ccccc2)cc1 | 3.52 | 6.51 µM [rising, single point] | –
31 | COc1ccc2c(c1)CCC/C2=N/OC(=O)c1ccccc1OC | -40.4 | 29.1 µM [falling, single point] | 3.66 µM [falling, single point]
32 | COc1ccc(NC(=O)CSc2nc(N)c(C#N)cc2C#N)cc1 | – | – | 0.58 µM [rising, full curve]
33 | COC(=O)CN(c1nc(C)c(Cl)c(OC)n1)S(=O)(=O)c1ccc(C)cc1 | 0.636 | 0.092 µM [falling, full curve, poor fit] | –
34 | CCCn1c(SCC(=O)Nc2nnc(CC)s2)nnc1-c1ccco1 | 16.8 | – | –
35 | CCCc1nc(-c2ccccc2O)n(-c2ccccc2)n1 | -25.9 | 25.9 µM [rising, single point] | –
36 | CC(=O)c1ccc(S(=O)c2ccccc2)cc1 (stereo unspecified) | 3.51 | – | 6.51 µM [falling, single point]
37 | CC(C)c1ccccc1OCCCN1CCCC1 | -6.42 | 2.91 µM [falling, single point] | –
38 | O=C(Nc1nnc(-c2ccc3c(c2)CCCC3)o1)c1ccccc1Cl | 2.93 | 16.4 µM [rising, partial curve] | –
